{
  "source": "PubChem BioAssay AID504467",
  "about": "(National Center for Advancing Translational Sciences (NCATS), 2011)",
  "note": "Hit rate of the full screen: of about 330,000 compounds, about 7,700 (2.3%) were called active. The inconclusive results got no clear call from the source; some entries with a clear call stand among them for comparison. The call rests on the fitted dose curve; in most records, active means well fitted inhibition curve with a large enough effect; inconclusive means small, poorly fitted or top-dose-only effect, or effect the other way; inactive means flat fitted curve, though single readings scatter. A potency beside an inconclusive call is a rough fit, not a confirmed value. Potency means the concentration at half of the fitted maximal effect.",
  "data": [
    {"assay": "qHTS screen for small molecules that inhibit ELG1-dependent DNA repair in human embryonic kidney (HEK293T) cells expressing luciferase-tagged ELG1; further: nearly all actives have a fitted effect of over 55% in size", "conditions": "HEK293T ELG1-luciferase reporter, luminescence, 16 h, DNA damage induced by 5-fluorouridine; series mostly up to 46.1 µM", "summary_of_the_method": "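Reporter activity after DNA damage by 5-fluorouridine is monitored. Compound-treated cells incubate 16 hr at 37 °C, then ONE-Glo is added for 30 min before luminescence reading.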", "values": [
      {"compound": "O=C(Nc1ccc2oc(-c3ccccc3)nc2c1)c1ccncc1", "Potency": "inconclusive: 29.1 µM [inhibitor, single point]"},
      {"compound": "COc1ccc(Oc2nccc(-c3ccccc3)c2C#N)cc1", "Potency": "inconclusive: 11.6 µM [activator, partial curve]"},
      {"compound": "COc1ccc(S(=O)(=O)Nc2ccccc2C(=O)N2CCCCC2)cc1C", "Potency": "inactive"},
      {"compound": "O=C(N/N=C/C=C\\c1ccco1)c1ccccn1", "Potency": "inconclusive: 18.3 µM [activator, partial curve]"},
      {"compound": "COC(=O)Cc1cc(=O)n2[nH]c(C(F)(F)F)nc2n1", "Potency": "inactive"},
      {"compound": "Cc1cc(C)nc(N2CCCC(C(=O)NNC(=O)c3ccncc3)C2)n1", "note": "(stereo not given)", "Potency": "inactive"},
      {"compound": "CC(C)(C)c1ccc(C(=O)N2CCC(NC(=O)c3ccccc3)CC2)cc1", "Potency": "inactive"},
      {"compound": "Fc1ccccc1SCc1nnc(-c2ccccc2Br)o1", "Potency": "inconclusive: 2.06 µM [activator, full curve]"},
      {"compound": "CCCc1ccc2oc(C(=O)NCc3nnc(C)o3)c(C)c2c1", "Potency": "inconclusive: 20.6 µM [activator, partial curve]"},
      {"compound": "CON(C)C(=O)CCN(Cc1ccccc1)C(=O)OC(C)(C)C", "Potency": "inactive"},
      {"compound": "Cn1c(SCCN2CCOCC2)nc2sc3c(c2c1=O)CCCC3", "Potency": "inconclusive: 0.0058 µM [activator, full curve, poor fit]"},
      {"compound": "O=C(c1cc(-c2ccccc2O)on1)N1CCOCC1", "Potency": "inconclusive: 16.4 µM [activator, partial curve]"},
      {"compound": "C=CCNc1nc(Cl)nc(Nc2cc(Cl)ccc2OC)n1", "Potency": "inactive"},
      {"compound": "N#Cc1ccc(C(=O)Nc2ccc3ccccc3c2)cc1", "Potency": "inconclusive: 1.83 µM [activator, full curve]"},
      {"compound": "CCc1ccc(C2N3CC4([N+](=O)[O-])CN2CC([N+](=O)[O-])(C3)C4(C)C)cc1", "note": "(stereo not given)", "Potency": "inconclusive: 5.8 µM [activator, partial curve, poor fit]"},
      {"compound": "CCC1C(=O)NCCN1C(=O)c1cccc(OC2CCN(S(=O)(=O)N(C)C)CC2)c1", "note": "(stereo not given)", "Potency": "inconclusive: 23.1 µM [activator, single point]"},
      {"compound": "COC(CNc1ncnc2sc(-c3ccccc3)cc12)OC", "Potency": "inactive"},
      {"compound": "Cc1cc(OCc2cn3cccnc3n2)ccc1Cl", "Potency": "inconclusive: 14.6 µM [activator, partial curve]"},
      {"compound": "O=C(Nc1ccc2nn(-c3ccccc3)nc2c1)c1ccc2c(c1)OCCO2", "Potency": "inconclusive: 23.1 µM [inhibitor, single point]"},
      {"compound": "COC(CN(C(=O)CCl)C(C(=O)NC1CCCCC1)c1ccc(Cl)cc1)OC", "note": "(stereo not given)", "Potency": "inactive"},
      {"compound": "COc1ccc(N2CCN(C(=S)NC(C)c3ccccc3)CC2)cc1", "note": "(stereo not given)", "Potency": "inconclusive: 29.1 µM [inhibitor, single point]"},
      {"compound": "CC(=O)N/N=C/c1cc(C(C)C)cc(/C=N/NC(C)=O)c1O", "Potency": "inactive"},
      {"compound": "COc1ccccc1NC(=O)C(=O)N/N=C/c1cccs1", "Potency": "inconclusive: 13 µM [activator, partial curve]"},
      {"compound": "Cc1cc(C(=O)N/N=C/c2cc(Br)cc(Br)c2OC(=O)c2cccc(F)c2)n[nH]1", "Potency": "inconclusive: 2.91 µM [inhibitor, full curve]"},
      {"compound": "O=C(Nc1ccc(F)cc1)c1ccc2snnc2c1", "Potency": "inconclusive: 14.6 µM [activator, partial curve]"},
      {"compound": "COc1ccc(NC(=O)C(=O)c2cn(CC(=O)N3CCCC3)c3ccccc23)c(OC)c1", "Potency": "inconclusive: 1.46 µM [activator, full curve, poor fit]"},
      {"compound": "Clc1cccc(OCCN2CCCC2)c1", "Potency": "inconclusive: 5.62 µM [activator, single point]"},
      {"compound": "CCCOC(=O)c1ccc(NC(=O)Cc2cccs2)cc1", "Potency": "inconclusive: 20.6 µM [activator, single point]"},
      {"compound": "CN(/N=C/c1ccc([N+](=O)[O-])o1)c1ccccc1", "Potency": "inconclusive: 20.6 µM [activator, single point]"},
      {"compound": "O=C1NCCOC(=O)[C@@H](Cc2ccc(F)cc2)C/C=C\\C[C@@H]1CC(=O)N(CCO)Cc1ccccc1", "Potency": "inconclusive: 20.6 µM [inhibitor, single point]"},
      {"compound": "COc1cccc(C(CNC(=O)c2ccc(Cl)c(S(=O)(=O)N3CCCC3)c2)N(C)C)c1", "note": "(stereo not given)", "Potency": "inconclusive: 3.26 µM [inhibitor, partial curve]"},
      {"compound": "CC(C)(C)c1nnc(SCC(=O)Nc2ccc(N3CCCCC3)cc2)n1N", "Potency": "inconclusive: 18.3 µM [activator, partial curve, poor fit]"},
      {"compound": "O=C(NCc1ccco1)c1ccc(Cn2c(=O)c3ccccc3n(Cc3cccc(F)c3)c2=O)cc1", "Potency": "inactive"},
      {"compound": "O=C(NN=C1C2CC3CC(C2)CC1C3)c1cccs1", "Potency": "inconclusive: 20.6 µM [activator, single point]"},
      {"compound": "COc1ccccc1CCNC(=O)C(=O)NCC1OCCCN1S(=O)(=O)c1cc(C)ccc1C", "note": "(stereo not given)", "Potency": "active: 20.6 µM"},
      {"compound": "Cc1c(Cc2ccc3c(c2)OCO3)sc(NC(=O)C(C)(C)C)c1C#N", "Potency": "inconclusive: 18.4 µM [inhibitor, single point]"},
      {"compound": "Cc1ccsc1C(=O)OCC(=O)Nc1ccc(Cl)cn1", "Potency": "inconclusive: 20.6 µM [activator, partial curve]"},
      {"compound": "CC1CCC(NC(=O)c2ccc(NS(=O)(=O)c3ccc4[nH]c(=O)[nH]c4c3)cc2)CC1", "note": "(stereo not given)", "Potency": "inconclusive: 12.6 µM [activator, partial curve]"},
      {"compound": "Nn1c(SCC(=O)N2CCOCC2)nnc1-c1cccnc1", "Potency": "inactive"},
      {"compound": "Cn1c2c(c(=O)n(C)c1=O)C(c1ccccc1F)C(C#N)=C(N)O2", "note": "(stereo not given)", "Potency": "inconclusive: 20.6 µM [activator, partial curve, poor fit]"},
      {"compound": "O=C(CSc1nc2ccccc2s1)N1c2ccccc2Sc2ccc(C(F)(F)F)cc21", "Potency": "inactive"},
      {"compound": "Cc1ccc(-c2csc(NC(=O)C3=NN(c4ccccc4)C(=O)CC3)n2)cc1", "Potency": "active: 13 µM"},
      {"compound": "Cc1ccc2c(c1)C(c1ccccc1)N(C(=O)c1cccc([N+](=O)[O-])c1)CC(=O)N2", "note": "(stereo not given)", "Potency": "active: 13 µM"},
      {"compound": "COc1ccc(-n2nc(C(C)=O)c(=O)[nH]c2=O)cc1", "Potency": "inconclusive: 1.03 µM [inhibitor, single point]"},
      {"compound": "Clc1ccc2[nH]c(-c3ccccc3)cc2c1", "Potency": "inconclusive: 11.6 µM [activator, partial curve]"},
      {"compound": "CSc1ccccc1-c1nnc(-c2ccccc2)o1", "Potency": "inconclusive: 6.51 µM [activator, partial curve]"},
      {"compound": "O=C(NCCN1CCN(c2ccccc2)CC1)c1ccccc1F", "Potency": "inactive"},
      {"compound": "CC1(c2ccc([N+](=O)[O-])cc2)CC(C)(C)N(C(=O)c2ccccc2)c2ccccc21", "note": "(stereo not given)", "Potency": "inactive"},
      {"compound": "COc1ccc(S(=O)(=O)N(C)CC(=O)NCCC2=CCCCC2)cc1C", "Potency": "inactive"},
      {"compound": "O=C(Nc1ccc2nsnc2c1)NC1CCCCC1", "Potency": "inconclusive: 9.2 µM [activator, partial curve]"},
      {"compound": "C[C@@H]1CC=C[C@H]2[C@H]1C(=O)N(Cc1ccccc1)[C@H]2c1ccc(-c2ccc(N(C)C)cc2)cc1F", "Potency": "inconclusive: 11.6 µM [inhibitor, partial curve, poor fit]"},
      {"compound": "COc1ccccc1N(/N=C1\\Sc2ccccc2C1=O)C(C)=O", "Potency": "inconclusive: 1.83 µM [activator, partial curve]"},
      {"compound": "CCC(=O)Nc1ccc(OCc2nc3ccccc3s2)cc1", "Potency": "inconclusive: 4.11 µM [activator, partial curve]"},
      {"compound": "N=c1c2c(-c3ccccc3)c(-c3ccccc3)n(Cc3ccco3)c2ncn1CCCN1CCOCC1", "Potency": "inactive"},
      {"compound": "c1ccc(-c2cn3c(n2)SCC3)cc1", "Potency": "inconclusive: 16.4 µM [activator, partial curve]"},
      {"compound": "O=C1[C@H]2C(c3ccccc3)=NN(c3ccccc3)[C@H]2C(=O)N1c1ccccc1", "Potency": "inconclusive: 11.6 µM [inhibitor, partial curve, poor fit]"},
      {"compound": "C[C@H](CO)N1C[C@H](C)[C@@H](CN(C)Cc2ccc(C(=O)O)cc2)Oc2c(NS(=O)(=O)c3ccccc3)cccc2C1=O", "Potency": "inconclusive: 23.1 µM [activator, partial curve, poor fit]"},
      {"compound": "Clc1ccccc1Nc1nc(-c2cccnc2)cs1", "Potency": "inconclusive: 2.91 µM [activator, partial curve]"},
      {"compound": "O=c1[nH]c(CSc2nc3ccccc3s2)nc2ccccc12", "Potency": "inconclusive: 23.1 µM [activator, single point]"},
      {"compound": "COc1ccc(OCC(=O)Nc2ccc(N3CCOCC3)c(Cl)c2)cc1", "Potency": "inconclusive: 18.4 µM [inhibitor, single point]"},
      {"compound": "O=C(NC1CCCC1)C(c1cccs1)N(CC1CCCO1)C(=O)Cc1cccs1", "note": "(stereo not given)", "Potency": "inactive"},
      {"compound": "Cc1occc1-c1nnc(SCC(=O)NCc2cccs2)n1-c1ccc(F)cc1", "Potency": "inconclusive: 16.4 µM [inhibitor, single point]"},
      {"compound": "C=CCn1cnc2c(c1=O)c1nc3ccccc3nc1n2/N=C/c1cccc(OC)c1", "Potency": "active: 20.6 µM"},
      {"compound": "CCN(Cc1ccccc1)C1CCN(Cc2ccc(SC)cc2)CC1", "Potency": "inconclusive: 18.3 µM [inhibitor, single point]"},
      {"compound": "CC(C)N1CCc2c(sc(NC(=S)NC(=O)c3ccccc3)c2C#N)C1", "Potency": "inconclusive: 13 µM [activator, partial curve]"},
      {"compound": "O=C(NCCO)c1ccc(Oc2ccc(C(F)(F)F)cc2[N+](=O)[O-])cc1", "Potency": "inactive"},
      {"compound": "CCOc1cc(N2CCOCC2)c(OCC)cc1NC(=O)CCS(=O)(=O)c1ccc(Cl)cc1", "Potency": "inconclusive: 18.4 µM [inhibitor, partial curve]"},
      {"compound": "O=C(c1ccco1)N1N=C(c2ccc(Br)cc2)CC1c1ccco1", "note": "(stereo not given)", "Potency": "active: 11.2 µM"},
      {"compound": "COc1ccc(-c2cc(OC(=O)c3ccc(F)cc3)c3c(C)oc(C)c3c(=O)c2)cc1", "Potency": "inactive"},
      {"compound": "CCc1ccccc1NC(=S)N(CCN(C)C)Cc1cccs1", "Potency": "inconclusive: 36.6 µM [activator, partial curve, poor fit]"}
    ]}
  ]
}
